Measurements reported in patent US7084158B2, “Substituted propargylamines” (Bayer Cropscience S.A., priority 2001, dated 2006).
Some results were stated once for a whole list of compounds, not compound by compound.

Experiments:
Type in all cases: in vivo
Plutella xylostella = test: Example N Test 3: leaf disks sprayed, LD90; conditions: larvae of the 2nd development stage; spray; 48 h
Lucilia sericata = test: Example N Test 5: treated milk-yeast-agar diet, minimum effective dose; conditions: 1st stage larvae on treated diet; lowest dosage stopping further development of the larvae
[1] = system: Boophilus microplus larvae; test: Example N Test 6: tick larvae dip, minimum effective concentration; conditions: two-week-old larvae dipped 4 minutes; 100% mortality within 48 h

SMILES | LD90 (dosage which leads to 90% mortality) (Plutella xylostella) [% by weight] | minimum effective dose (MED) (Lucilia sericata) [μg/glass] | minimum effective concentration (MEC) [1] [% by weight]
CC1CCN(CC#Cc2cccc(F)c2)CC1 [Example 4, 1-[3-(3-Fluorophenyl)-2-propynyl]-4-methylpiperidine] | ≤ 0.05 | ≤ 100 | ≤ 0.04
COC(=O)c1ccccc1C#CCN1CCCCC1 [Example 9] |  |  | ≤ 0.04
CC1CCN(CC#Cc2ccc(C#N)cc2)CC1 [Example 22] |  |  | ≤ 0.04
FC(F)(F)c1cc(C#CCN2CCCCC2)cc(C(F)(F)F)c1 [Example 6, 1-[3-(3,5-Bistrifluoromethylphenyl)-2-propynyl]piperidine] | ≤ 0.05 |  | ≤ 0.04
COc1ccc(C#CCN2CCCCC2)cc1.Cl [Example 2, 1-(4-Methoxyphenyl-2-propynyl)piperidine hydrochloride] |  |  | ≤ 0.04
Cl.FC(F)(F)c1cc(C#CCN2CCCCC2)cc(C(F)(F)F)c1 [Example 7, 1-[3-(3,5-Bistrifluoromethylphenyl)-2-propynyl]piperidine hydrochloride] | ≤ 0.05 |  | 
